Laboratory results reported in the odorant receptor screen of Mainland et al. (2015).
Values joined by “and” are separate entries in the source; they are usually repeats but may differ in a detail not shown here. Equal entries are not always repeated. This is one part of the list. Each value is one well over the wells without odorant, computed here; the data are noisy.

What was measured:
Experiment in all cases: odorant receptor activation (CRE luciferase / Renilla) (fold of no-odor wells); higher = more activation
Conditions in all cases: 100 µM
[1] = test system: OR4M2 clone 1278
[2] = test system: OR4N2 clone 1270
[3] = test system: OR4N4 clone 1277
[4] = test system: OR4N5 clone 1262
[5] = test system: OR4P4 R231C clone 1398
[6] = test system: OR4P4 clone 1139
[7] = test system: OR4Q3 clone 1411
[8] = test system: OR4S1 clone 1283
[9] = test system: OR4S2 clone 1175
[10] = test system: OR4X2 clone 1193

SMILES	odorant receptor activation [1]	odorant receptor activation [2]	odorant receptor activation [3]	odorant receptor activation [4]	odorant receptor activation [5]	odorant receptor activation [6]	odorant receptor activation [7]	odorant receptor activation [8]	odorant receptor activation [9]	odorant receptor activation [10]
CC/C=C\CCO [cis-3-hexen-1-ol]	1.02	0.928	1.01	1.01	0.222	1.15	0.282	0.71	0.913	1.05
CCCCCCCCCCC=O [undecanal]	1.2	0.928	0.875	0.99	0.926	0.885	1.18	0.852	1.16	0.881
CC12CCC(C1)C(C)(C)C2=O (stereo not drawn) [fenchone]	1.08	0.912	0.801	1.66	0.753	1.01	1.05	1.04	1.03	0.876
CC(C)CC(=O)O [isovaleric acid]	0.735	0.633	0.886	0.82	0.606	1.21	0.778	0.625	1.03	1.61
CC(=O)c1ccccc1 [acetophenone]	0.882	3.05	0.646	1.31	0.853	1.15	1.45	0.942	1.72	2.06
c1ccc(Oc2ccccc2)cc1 [diphenyl ether]	1.1	1.16	0.951	1.43	0.828	1.03	1.12	1.12	0.871	1.12
CC=Cc1ccc(O)c(OC)c1 [isoeugenol]	1.7 and 1.24	1.3 and 1.11	1.06 and 1.3	1.22 and 0.864	1.17	0.77	1.36	1.26 and 1.96	1.57	0.856
CCCCCCCCC=O [nonyl aldehyde]	1.18	0.84	1.29	0.824	0.796	1.24	0.796	0.938	0.881	1.42
CC1=CCC(C(C)(C)O)CC1 (stereo not drawn) [terpineol]	1.22	0.946	0.918	1	0.88	1.13	1.17	0.858	1.24	1.09
O=C1CCCCCCCCCCCCCCO1 [pentadecalactone]	0.69	0.853	0.818	0.702	0.91	0.735	1.13	0.737	0.793	0.743
CC(C)C=O [isobutyraldehyde]	0.792 and 0.766	0.919 and 1.31	1.13 and 0.717	1.17 and 0.752	0.713	0.743	0.876	1.17 and 0.922	0.832	0.868
CCCC(=O)O [butyric acid]	1.02	0.92	1.08	0.955	0.276	1.35	0.276	0.736	0.962	1.07
CCCCCCCC=O [octyl aldehyde]	1.23	0.881	1.18	1.08	0.832	1.06	0.747	1.13	0.991	1.47
CC12C=CCC1C1CCC3CC(=O)CCC3(C)C1CC2 (stereo not drawn) [androstenone]	1.24	1.03	0.904	1.07	1.26	4.94	0.79	1.18	3.58	5.79
O=CCc1ccccc1 [phenyl acetaldehyde]	1.49	1.4	1.48	1.11	1.27	0.987	1.52	1.06	1.2	0.936
CCCCCOC(C)=O [n-amyl acetate]	0.262	0.653	0.316	0.62	0.642	0.534	1.09	0.328	0.817	0.869
CCCCCCCC=CC=O [2-decenal]	2.21	1.36	1.89	1.06	1.1	0.986	0.68	1.17	1.2	1.39
C=CC(C)(O)CCC=C(C)C (stereo not drawn) [linalool]	0.85	0.858	1.02	0.973	0.934	1.05	0.829	0.912	1.09	1.32
C=CCc1ccc(OC)c(OC)c1 [eugenol methyl ether]	1.58	2.06	1.54	2.07	1.49	1.4	1.53	1.74	1.28	1.28
CCCCCCCOC(C)=O [heptyl acetate]	0.937 and 1.11	1.04 and 0.987	1.12 and 0.99	1.02 and 0.966	0.672	0.714	0.924	0.796 and 1.37	0.68	0.694
CC(=O)C(C)=O [diacetyl]	1.28	1.18	0.848	1.35	1.36	1.08	1.37	1.23	1.14	1.03
CCCCCCCCOC(C)=O [octyl acetate]	1.01	0.831	1.01	1.17	0.927	0.963	0.684	1.11	0.877	1.37
CC12C=CCC1C1CCC3=CC(=O)CCC3(C)C1CC2 (stereo not drawn) [androstadienone]	1.13 and 0.875	0.952 and 1.39	0.907 and 0.875	1.21 and 0.851	0.679	0.495	0.727	0.84 and 1.43	0.736	0.715
CC1=NC(C)SC1C (stereo not drawn)	0.406	1.43	0.529	1.21	0.823	0.59	1.41	0.662	0.725	1.1
CC(C)(C)c1ccc(CCC=O)cc1 [bourgeonal]	0.767	0.903	0.778	0.784	0.162	0.831	0.209	0.757	0.73	0.778
COC(=O)c1ccccc1 [methyl benzoate]	0.242	0.722	0.51	0.7	0.634	0.949	1.04	0.464	0.87	0.878
C=CCSCC=C [diallyl sulfide]	1.19	0.992	0.769	1.43	0.907	0.914	1.37	1.03	1.02	0.98
CC(C)CCC(=O)O [4-methylvaleric acid]	1.21	1.04	0.953	1.09	1.18	0.72	0.873	1.6	1.15	1.53

Taken from above (two entries):
SMILES	odorant receptor activation [1]	odorant receptor activation [2]	odorant receptor activation [3]	odorant receptor activation [4]	odorant receptor activation [5]	odorant receptor activation [6]	odorant receptor activation [7]	odorant receptor activation [8]	odorant receptor activation [9]	odorant receptor activation [10]
CCCCCCCCOC(C)=O [octyl acetate]	1.01	0.831	1.01	1.17	0.927	0.963	0.684	1.11	0.877	1.37
CC12C=CCC1C1CCC3=CC(=O)CCC3(C)C1CC2 (stereo not drawn) [androstadienone]	1.13 and 0.875	0.952 and 1.39	0.907 and 0.875	1.21 and 0.851	0.679	0.495	0.727	0.84 and 1.43	0.736	0.715

(listing goes on)

SMILES	odorant receptor activation [1]	odorant receptor activation [2]	odorant receptor activation [3]	odorant receptor activation [4]	odorant receptor activation [5]	odorant receptor activation [6]	odorant receptor activation [7]	odorant receptor activation [8]	odorant receptor activation [9]	odorant receptor activation [10]
c1cnccn1 [pyrazine]	0.885	0.856	0.852	0.686	0.963	0.89	1.36	0.766	0.974	0.885
CCCCO [1-butanol]	1.41	0.897	1.18	0.898	1.1	1.04	0.788	1.14	1.01	1.39
CCCCCCC=O [heptaldehyde]	–	0.599 and 1.1 and 1.12	0.295 and 0.882 and 0.609	1.2 and 1.03 and 0.813	0.894 and 0.664	0.357 and 0.68	1.22 and 0.816	–	0.329 and 0.912	0.461 and 0.892
CC(=O)OC(C)(C)C1CC=C(C)CC1 (stereo not drawn) [terpinyl acetate]	1.17	1.04	0.998	0.863	0.767	1.37	1.06	0.89	1.19	1.03
CC1CCC(C(C)C)C(O)C1 (single isomer, unassigned; (+)) [(+)-menthol]	0.982	0.787	0.901	0.815	1.17	1.23	0.996	0.815	1.21	1.48
CCCCCCCCCC=O [decyl aldehyde]	1.46	1.12	1.19	2.06	1.22	1.08	1.51	1.27	1.03	1.15
CCCCCC(C)=O [2-heptanone]	0.376	1.59	0.479	1.53	0.882	1.09	1.14	0.657	1.32	1.4
COC(=O)c1ccccc1O [methyl salicylate]	0.784	0.893	0.96	0.766	1.05	0.922	1.25	0.739	0.808	1.13
O=C1CCCCCCCCCCCC(=O)OCCO1 [ethylene brassylate]	1.45	1.82	1.67	1.78	1.64	1.5	1.98	1.43	1.65	1.72
COc1cc(C)ccc1O [2-methoxy-4-methylphenol]	0.972	0.589	0.835	0.748	1.15	0.849	1.02	1.03	1.3	1.33
COc1ccccc1O [guaiacol]	0.93 and 0.806	1.19 and 1.2	0.842 and 0.874	0.964 and 0.752	0.679	0.645	0.767	0.779 and 1.14	0.968	0.685
COc1cc(C=O)ccc1O [vanillin]	1.37	1.06	1.27	1.09	0.773	1.18	0.897	0.779	1.09	1.05
CC(=O)OCC=C(C)CCC=C(C)C [geranyl acetate]	1.24 and 1.14	1.56 and 0.931	0.899 and 1.01	1.08 and 0.842	0.86	0.634	1.19	1.09 and 1.68	1.16	0.974
CC12CCC(CC1)C(C)(C)O2 [cineole]	0.945	1.28	1.08	1.05	0.212	1	0.237	0.83	0.867	0.998
O=C1CCCCC1 [Cyclohexanone]	0.175	0.518	0.338	0.696	0.793	0.896	1.01	0.394	1.15	1.08
C=CCc1ccc(OC(C)=O)c(OC)c1 [eugenol acetate]	1.89	1.98	1.57	2.14	1.84	2.42	2.03	1.77	1.59	1.62
CCCCCC(=O)O [caproic acid]	0.82	0.772	0.916	0.893	0.222	1.16	0.287	0.747	1.09	1.11
CC1COCc2cc3c(cc21)C(C)(C)C(C)C3(C)C (stereo not drawn) [galaxolide]	4.71 and 4.2	3.62 and 1.27	1.56 and 4.09	1.3 and 0.875	2.81	0.477	2.52	–	3.28	0.678
CC(C)=CCCC(C)=CC=O [citral]	1.54	1.07	1.2	1.08	0.285	1.03	0.272	0.99	1.19	1.19
CC(=O)OC1CC2CCC1(C)C2(C)C (stereo not drawn) [isobornyl acetate]	1.03 and 0.921	1.06 and 1.02	1.12 and 0.838	1.3 and 1.05	0.669	0.673	0.871	1.32 and 1.27	1.08	0.796
CC1CCC(C(C)C)C(O)C1 (single isomer, unassigned; (-)) [(-)-menthol]	0.838	0.608	0.87	0.691	0.959	1.26	0.765	0.677	1.12	1.51
C=C(C)C1CC=CCC1 (stereo not drawn) [r-limonene]	–	0.946 and 0.415	–	0.759 and 0.46	1.02 and 0.762	1.03 and 0.517	1.43 and 1.34	–	–	0.937 and 0.724
CCC1(O)C2(C)CCC(C2)C1(C)C (stereo not drawn) [2-ethylfenchol]	1.17	1.17	1.09	0.656	1.17	0.698	0.581	0.955	0.849	1.01
CC(C)C(=O)O [isobutyric acid]	1.15 and 0.653	0.942 and 1.02	0.939 and 0.706	1.03 and 0.825	0.623	0.683	0.736	0.94 and 0.693	0.903	0.958
C=C(C)C1CC=C(C)C(=O)C1 (stereo not drawn) [r-carvone]	1.08	0.964	0.825	0.762	0.836	0.935	1.21	0.772	1.01	0.944
C=CCc1ccc(O)c(OC)c1 [eugenol]	0.84 and 1.61	2.38 and 1.51	0.907 and 1.13	4.58 and 1.96	1.25 and 1.26	1.78 and 1.32	2.73 and 2.09	0.87 and 1.36	2.62 and 1.41	2.31 and 1.13
CCCCCCOC(=O)CCC [hexyl butyrate]	1.12 and 0.8	0.918 and 1.01	1.1 and 0.763	1.37 and 0.756	0.559	0.572	0.809	1.08 and 0.967	1.2	0.85
